Data as given in PubChem BioAssay AID1259308 (NCATS, 2017)
Shown is a random part of about 59,000 deposited reagents. About 1,510 of all reagents (2.6%) count as active. 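Calls use total luciferase alone and ignore viability, so some active siRNAs may act by altering cell number.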 Reagents against one gene are numbered here. Not all columns of the deposit are shown. No sequences are given here.

Purpose: 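Candidate targets for better recombinant protein yield in mammalian cells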 (primary screen)
Cells: human HEK293 embryonic kidney cells stably expressing firefly luciferase (HEK-CMV-Luc2-Hygro)
Reagents: single siRNA against human genes, 0.8 pmol siRNA per well
Duration: 72 h
Detection: 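Luciferase light (ONE-Glo) measured on one replicate plate set and viability (CellTiter-Glo) on the other, scaled to a negative control siRNA, with robust z-scores and luciferase per cell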
Direction: total luciferase, z-score and total luciferase, % of control: higher = more reporter protein produced; luciferase per cell, z-score: higher = more reporter output per viable cell
Call rule: 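An siRNA counts as active if its total luciferase robust z-score exceeds 3; genes with two or more such siRNAs out of three were retested with fresh siRNAs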
Meaning of the calls: active = raised luciferase; inactive = no rise

no.	gene	reagent	total luciferase, z-score	total luciferase, % of control	luciferase per cell, z-score	outcome
1	ACVR1B (activin A receptor type 1B)	1	1.25	107	1.31	inactive
2	ACVR1B (activin A receptor type 1B)	2	-0.259	76.7	-1.21	inactive
3	ACVR1B (activin A receptor type 1B)	3	0.572	93.3	0.146	inactive
4	ATP2C1 (ATPase secretory pathway Ca2+ transporting 1)	1	-0.954	62.9	-1.27	inactive
5	ATP2C1 (ATPase secretory pathway Ca2+ transporting 1)	2	0.313	88.1	0.835	inactive
6	ATP2C1 (ATPase secretory pathway Ca2+ transporting 1)	3	0.459	91	-0.619	inactive
7	ELMO1 (engulfment and cell motility 1)	1	-0.08	80.3	-0.554	inactive
8	ELMO1 (engulfment and cell motility 1)	2	-0.132	79.3	0.899	inactive
9	ELMO1 (engulfment and cell motility 1)	3	-1.51	51.9	-1.52	inactive
10	STRADB (STE20 related adaptor beta)	1	4.25	166	3.06	active
11	STRADB (STE20 related adaptor beta)	2	-0.0667	80.6	-0.0602	inactive
12	STRADB (STE20 related adaptor beta)	3	1.39	110	0.383	inactive
13	LRIT2 (leucine rich repeat, Ig-like and transmembrane domains 2)	1	-0.925	63.5	-0.225	inactive
14	LRIT2 (leucine rich repeat, Ig-like and transmembrane domains 2)	2	-1.31	55.8	-1.29	inactive
15	LRIT2 (leucine rich repeat, Ig-like and transmembrane domains 2)	3	0.363	89.1	0.816	inactive
16	EPDR1 (ependymin related 1)	1	2.38	129	1.4	inactive
17	EPDR1 (ependymin related 1)	2	0.767	97.1	0.206	inactive
18	EPDR1 (ependymin related 1)	3	-0.613	69.7	-0.949	inactive
19	PRDM1 (PR/SET domain 1)	1	0.26	87.1	-0.0226	inactive
20	PRDM1 (PR/SET domain 1)	2	-1.41	53.8	-1.82	inactive
21	PRDM1 (PR/SET domain 1)	3	0.843	98.7	0.92	inactive
22	AURKB (aurora kinase B)	1	-1.72	47.8	-0.947	inactive
23	AURKB (aurora kinase B)	2	-0.847	65	-0.757	inactive
24	AURKB (aurora kinase B)	3	-0.309	75.7	-0.544	inactive
25	SERPIND1 (serpin family D member 1)	1	-0.471	72.5	-0.544	inactive
26	SERPIND1 (serpin family D member 1)	2	-1.28	56.4	-1.41	inactive
27	SERPIND1 (serpin family D member 1)	3	-0.285	76.2	-0.345	inactive
28	LY75 (lymphocyte antigen 75)	1	0.633	94.5	0.429	inactive
29	LY75 (lymphocyte antigen 75)	2	0.104	83.9	-0.285	inactive
30	LY75 (lymphocyte antigen 75)	3	0.0609	83.1	-0.496	inactive
31	BLOC1S1 (biogenesis of lysosomal organelles complex 1 subunit 1)	1	-0.488	72.2	-0.506	inactive
32	BLOC1S1 (biogenesis of lysosomal organelles complex 1 subunit 1)	2	2.41	130	2.94	inactive
33	BLOC1S1 (biogenesis of lysosomal organelles complex 1 subunit 1)	3	0.67	95.2	-0.331	inactive
34	GPR3 (G protein-coupled receptor 3)	1	-0.0562	80.8	0.807	inactive
35	GPR3 (G protein-coupled receptor 3)	2	-0.518	71.6	-0.189	inactive
36	GPR3 (G protein-coupled receptor 3)	3	0.0549	83	2.09	inactive
37	ENOPH1 (enolase-phosphatase 1)	1	-0.0416	81.1	0.0342	inactive
38	ENOPH1 (enolase-phosphatase 1)	2	3.99	161	2.17	active
39	ENOPH1 (enolase-phosphatase 1)	3	-0.145	79	-0.238	inactive
40	CYP7A1 (cytochrome P450 family 7 subfamily A member 1)	1	0.263	87.1	0.668	inactive
41	CYP7A1 (cytochrome P450 family 7 subfamily A member 1)	2	-0.876	64.5	-0.644	inactive
42	CYP7A1 (cytochrome P450 family 7 subfamily A member 1)	3	-0.687	68.2	-1.41	inactive
43	CITED4 (Cbp/p300 interacting transactivator with ED-rich tail 4)	1	0.758	97	0.391	inactive
44	CITED4 (Cbp/p300 interacting transactivator with ED-rich tail 4)	2	1.99	121	0.882	inactive
45	CITED4 (Cbp/p300 interacting transactivator with ED-rich tail 4)	3	-0.381	74.3	0.796	inactive

The list goes on, starting with the last 2 of the part before.
no.	gene	reagent	total luciferase, z-score	total luciferase, % of control	luciferase per cell, z-score	outcome
44	CITED4 (Cbp/p300 interacting transactivator with ED-rich tail 4)	2	1.99	121	0.882	inactive
45	CITED4 (Cbp/p300 interacting transactivator with ED-rich tail 4)	3	-0.381	74.3	0.796	inactive
46	RDH11 (retinol dehydrogenase 11)	1	0.0804	83.5	0.837	inactive
47	RDH11 (retinol dehydrogenase 11)	2	0.141	84.7	0.154	inactive
48	RDH11 (retinol dehydrogenase 11)	3	-1.77	46.8	-1.82	inactive
49	LEMD2 (LEM domain nuclear envelope protein 2)	1	-0.435	73.2	-0.593	inactive
50	LEMD2 (LEM domain nuclear envelope protein 2)	2	-0.639	69.2	-0.201	inactive
51	LEMD2 (LEM domain nuclear envelope protein 2)	3	0.349	88.8	0.597	inactive
52	MTCL2 (microtubule crosslinking factor 2)	1	0.392	89.7	0.246	inactive
53	MTCL2 (microtubule crosslinking factor 2)	2	-0.986	62.3	-0.944	inactive
54	MTCL2 (microtubule crosslinking factor 2)	3	0.294	87.7	0.163	inactive
55	KLRF1 (killer cell lectin like receptor F1)	1	1.21	106	0.642	inactive
56	KLRF1 (killer cell lectin like receptor F1)	2	0.148	84.8	0.369	inactive
57	KLRF1 (killer cell lectin like receptor F1)	3	-0.792	66.1	0.615	inactive
58	SLC12A3	1	0.289	87.6	-0.398	inactive
59	SLC12A3	2	0.0172	82.2	0.715	inactive
60	SLC12A3	3	-0.239	77.1	-0.08	inactive
61	PFN1P3 (profilin 1 pseudogene 3)	1	-0.288	76.2	0.492	inactive
62	PFN1P3 (profilin 1 pseudogene 3)	2	-0.428	73.4	-0.667	inactive
63	PFN1P3 (profilin 1 pseudogene 3)	3	-0.17	78.5	-0.696	inactive
64	ACACA (acetyl-CoA carboxylase alpha)	1	0.182	85.5	-0.344	inactive
65	ACACA (acetyl-CoA carboxylase alpha)	2	-0.453	72.9	-0.724	inactive
66	ACACA (acetyl-CoA carboxylase alpha)	3	-0.242	77.1	-0.594	inactive
67	POLRMT (RNA polymerase mitochondrial)	1	0.0667	83.2	0.298	inactive
68	POLRMT (RNA polymerase mitochondrial)	2	-0.151	78.9	-0.579	inactive
69	POLRMT (RNA polymerase mitochondrial)	3	0.0687	83.3	-0.551	inactive
70	RAG2 (recombination activating 2)	1	-1.38	54.5	-0.841	inactive
71	RAG2 (recombination activating 2)	2	-0.328	75.4	0.171	inactive
72	RAG2 (recombination activating 2)	3	-0.137	79.2	-0.516	inactive
73	TNFRSF18 (TNF receptor superfamily member 18)	1	0.594	93.7	-0.345	inactive
74	TNFRSF18 (TNF receptor superfamily member 18)	2	-1.43	53.4	-2.16	inactive
75	TNFRSF18 (TNF receptor superfamily member 18)	3	0.0149	82.2	0.108	inactive
